Some entries share one result that the patent states for a list of compounds.
Test system: female SWV mice with STZ induced diabetes
Assay: Weight loss and blood glucose in mice with STZ induced diabetes
Assay type: in vivo, mouse
Conditions: STZ diabetic mice, entire period of the treatment
Description: Weight loss and blood glucose in diabetes induced mice treated with ellagic acid was determined and weight loss and blood glucose in mice treated with ellagic acid dihydrate may be determined by the following procedures. Induction of Diabetes: Diabetes is induced in mice by intraperitoneal injection with Streptozotocin (STZ 40 mg/kg) daily for five days. The mice are considered hyperglycemic when the glucose level of each dam is above 200 mg/dL. The mice are fasted for 4 hours before STZ injection and glucose measurement. Treatment: The mice are treated daily for thirty days with ellagic acid or control in the form of a supplemental pill homogenized and suspended in 25% water solution of Cremophor EL. The mice are treated for one month via gavage using the human equivalent dose of 122.4 mg pill/kg of subject (40.6 mg ellagic acid/kg of the subject), the human equivalent does of 40.6 mg ellagic acid/kg of the subject using 98% pure ellagic acid, or control vehicle (25% water solution of Cremophor EL). The human equivalent dose is calculated as described in Example 8. Treatments would start two weeks after the last STZ injection in which hyperglycemia is confirmed in the diabetic mice. The mice would be weighed daily and glucose levels would be measured in fasted animals every five days.

## O=c1oc2c(O)c(O)cc3c(=O)oc4c(O)c(O)cc1c4c23 [ellagic acid]
  glucose level: above 200 mg/dL
